In paper PMC8750359:
No constants are given. Whether binding was seen depends on the method and setting. For part of these data: In cells and extracts the contact can be indirect. Some entries that bind do so weakly or less than the wild type. For part of these data: Sequences can lack the tags named with a protein. Each block holds one molecule with its values, some of them ahead of it.

By UniProt entry, the sequences of proteins in these tests, tags left out.
UniProt P45700: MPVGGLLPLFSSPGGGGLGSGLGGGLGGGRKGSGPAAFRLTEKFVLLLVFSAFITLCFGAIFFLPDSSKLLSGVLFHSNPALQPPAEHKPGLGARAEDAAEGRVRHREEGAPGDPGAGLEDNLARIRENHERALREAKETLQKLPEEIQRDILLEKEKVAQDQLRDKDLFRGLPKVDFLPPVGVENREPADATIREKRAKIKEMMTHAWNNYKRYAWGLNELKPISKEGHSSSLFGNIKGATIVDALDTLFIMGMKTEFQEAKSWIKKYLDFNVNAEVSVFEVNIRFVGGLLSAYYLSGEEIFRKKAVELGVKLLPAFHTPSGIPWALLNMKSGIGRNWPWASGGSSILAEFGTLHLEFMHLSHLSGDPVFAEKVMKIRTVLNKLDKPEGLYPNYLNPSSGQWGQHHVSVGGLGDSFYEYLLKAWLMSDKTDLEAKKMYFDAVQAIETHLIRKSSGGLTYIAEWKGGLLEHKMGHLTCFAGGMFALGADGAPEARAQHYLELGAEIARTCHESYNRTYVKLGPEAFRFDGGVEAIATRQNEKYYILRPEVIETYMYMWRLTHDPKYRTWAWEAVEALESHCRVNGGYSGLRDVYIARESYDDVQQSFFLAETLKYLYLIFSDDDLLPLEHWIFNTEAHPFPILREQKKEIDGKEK
UniProt P33908: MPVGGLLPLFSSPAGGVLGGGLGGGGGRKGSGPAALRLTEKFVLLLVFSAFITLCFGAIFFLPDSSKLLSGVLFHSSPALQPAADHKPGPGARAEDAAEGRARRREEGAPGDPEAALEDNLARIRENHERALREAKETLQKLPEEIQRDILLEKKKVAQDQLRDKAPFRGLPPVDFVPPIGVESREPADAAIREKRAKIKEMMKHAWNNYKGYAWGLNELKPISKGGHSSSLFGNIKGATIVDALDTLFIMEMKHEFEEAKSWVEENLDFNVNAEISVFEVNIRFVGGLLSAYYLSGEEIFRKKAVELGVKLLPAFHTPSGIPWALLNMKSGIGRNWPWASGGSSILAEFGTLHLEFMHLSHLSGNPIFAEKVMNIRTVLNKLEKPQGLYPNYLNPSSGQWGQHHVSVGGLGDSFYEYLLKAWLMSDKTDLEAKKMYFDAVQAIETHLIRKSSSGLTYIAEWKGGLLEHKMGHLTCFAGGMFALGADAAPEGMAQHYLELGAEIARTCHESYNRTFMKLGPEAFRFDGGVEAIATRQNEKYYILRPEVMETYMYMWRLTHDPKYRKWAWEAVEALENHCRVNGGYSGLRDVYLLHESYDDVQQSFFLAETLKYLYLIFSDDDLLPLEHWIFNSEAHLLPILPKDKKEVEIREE

Experiments:
[1] = biological target: T1, NKCC2 C1-term (proximal region of the NKCC2 C terminus, residues 661–768) (mouse) (UniProt P55014); experiment: two-hybrid; screen: AH109 expressing the NKCC2 C-terminal bait mated with Y187 pretransformed with a human kidney cDNA library; selection on -Leu -Trp -His, then -Leu -Trp -His -Ade; beta-galactosidase test
T1 sequence: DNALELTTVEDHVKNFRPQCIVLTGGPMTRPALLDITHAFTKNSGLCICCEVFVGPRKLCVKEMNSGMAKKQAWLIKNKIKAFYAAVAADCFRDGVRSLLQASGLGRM

[2] = biological target: WT ManIA-V5 (mouse Golgi alpha1,2-mannosidase IA, V5-tagged) (mouse) (UniProt P45700); experiment: co-IP; cells (line not stated) transfected with WT NKCC2 or N442Q/N452Q with or without ManIA-V5; IP with anti-Myc or anti-V5, blot with anti-Myc
[3] = biological target: WT ManIA-V5 (mouse Golgi alpha1,2-mannosidase IA, V5-tagged) (mouse) (UniProt P45700); experiment: co-IP; HEK cells transiently co-transfected with Myc-NKCC2 (or mutant) and ManIA-V5 (or ΔNter); IP with anti-V5, protein G beads, blot with anti-Myc; lysis buffer 0.4 M NaCl, 1.5 mM MgCl2, 10 mM Hepes pH 7.9, 5% glycerol, 0.5% Nonidet P-40

binding [1]: binds
Molecule: Golgi alpha1,2-mannosidase IA (ManIA), clone # 40 from a human kidney cDNA library (from UniProt P33908 1-653) (enzyme)

binding [2]: binds
B1: unglycosylated Myc-NKCC2 (N442Q/N452Q) (protein, UniProt P55014 1-1095)
chain: MSVSIPSNSVPSSASRFQVHVINEGHGSAAAVGDSADPPHYEETSFGDEAQNRLRISFRPGNQECYDNFLQTGETAKTDTTFHAYDSHTNTYYLQTFGHNTMDAVPKIEYYRNTGSVSGPKVNRPSLLEIHEQLAKNVTVAPGSADRVANGDGMPGDEQAENKEEDMTGVVKFGWVKGVLVRCMLNIWGVMLFIRLSWIVGEAGIGLGVLIILLSTMVTSITGLSTSAIATNGFVRGGGAYYLISRSLGPEFGGSIGLIFAFANAVAVAMYVVGFAETVVDLLKESDSMMVDPTNDIRIIGSITVVILLGISVAGMEWEAKAQVILLVILLIAIANFFIGTVIPSNNEKKSRGFFNYQASIFAENFGPSFTKGEGFFSVFAIFFPAATGILAGANISGDLEDPQDAIPRGTMLAIFITTVAYIGVAICVAACVVRDATGSMQDTIVSGMNCQGSAACGLGYDFSRCQHEPCQYGLMNNFQVMSMVSGFGPLITAGIFSATLSSALASLVSAPKVFQALCKDNIFKGLQFFAKGYGKNNEPLRGYFLTFVIAMAFILIAELNVIAPIISNFFLASYALINFSCFHASYAKSPGWRPAYGIYNMWVSLFGAILCCAVMFVINWWAAVITYVIELFLYIYVTYKKPDVNWGSSTQALSYVSALDNALELTTVEDHVKNFRPQCIVLTGGPMTRPALLDITHAFTKNSGLCICCEVFVGPRKLCVKEMNSGMAKKQAWLIKNKIKAFYAAVAADCFRDGVRSLLQASGLGRMKPNTLVIGYKKNWRKAPLSELENYVGIIHDAFDFEIGVVIVRISQGFDISPVLQVQDELEKLEQERLALEAAIKDNECEEGKGGIRGLFKKAGKLNITKPAPKKDGNISSIQSMHVGEFNQKLVEASAQFKKKQGKGTIDVWWLFDDGGLTLLIPYILTLRKKWKDCKLRIYVGGKITRIEEEKISMASLLSKFRIKFADIHIIGDINIKPNKESWKVFEEMIEPYRLHESHKDLTTAEKLKRESPWKITDAELEAVKEKSYRQVRLNELLQEHSRAANLIVLSLPVARKGSISDLLYMAWLEILTKNLPPVLLVRGNHKNVLTFYS

binding [3]: binds
B2: Myc-NKCC2 Y998X (Bartter syndrome type 1 mutant) (domain or fragment, UniProt P55014 1-997)
chain: MSVSIPSNSVPSSASRFQVHVINEGHGSAAAVGDSADPPHYEETSFGDEAQNRLRISFRPGNQECYDNFLQTGETAKTDTTFHAYDSHTNTYYLQTFGHNTMDAVPKIEYYRNTGSVSGPKVNRPSLLEIHEQLAKNVTVAPGSADRVANGDGMPGDEQAENKEEDMTGVVKFGWVKGVLVRCMLNIWGVMLFIRLSWIVGEAGIGLGVLIILLSTMVTSITGLSTSAIATNGFVRGGGAYYLISRSLGPEFGGSIGLIFAFANAVAVAMYVVGFAETVVDLLKESDSMMVDPTNDIRIIGSITVVILLGISVAGMEWEAKAQVILLVILLIAIANFFIGTVIPSNNEKKSRGFFNYQASIFAENFGPSFTKGEGFFSVFAIFFPAATGILAGANISGDLEDPQDAIPRGTMLAIFITTVAYIGVAICVAACVVRDATGSMNDTIVSGMNCNGSAACGLGYDFSRCQHEPCQYGLMNNFQVMSMVSGFGPLITAGIFSATLSSALASLVSAPKVFQALCKDNIFKGLQFFAKGYGKNNEPLRGYFLTFVIAMAFILIAELNVIAPIISNFFLASYALINFSCFHASYAKSPGWRPAYGIYNMWVSLFGAILCCAVMFVINWWAAVITYVIELFLYIYVTYKKPDVNWGSSTQALSYVSALDNALELTTVEDHVKNFRPQCIVLTGGPMTRPALLDITHAFTKNSGLCICCEVFVGPRKLCVKEMNSGMAKKQAWLIKNKIKAFYAAVAADCFRDGVRSLLQASGLGRMKPNTLVIGYKKNWRKAPLSELENYVGIIHDAFDFEIGVVIVRISQGFDISPVLQVQDELEKLEQERLALEAAIKDNECEEGKGGIRGLFKKAGKLNITKPAPKKDGNISSIQSMHVGEFNQKLVEASAQFKKKQGKGTIDVWWLFDDGGLTLLIPYILTLRKKWKDCKLRIYVGGKITRIEEEKISMASLLSKFRIKFADIHIIGDINIKPNKESWKVFEEMIEPYRLH
modifications: immature, core-glycosylated form only
